Results are given in words; binding and its absence hold for the method and conditions named. In cells and extracts the contact can be indirect. Some binding calls cover weakened binding; strength is not graded here. For some of these results: Tags and fused reporters may be left off the sequences shown.
Assays:
Test in all cases: co-IP; Flag-labeled IRS or truncated IRS proteins co-transfected with HA-labeled ERα or its truncated proteins in HEK293 cells for 30 h, 10 µM MG132 for 1 h, TNE buffer, anti-Flag antibody overnight at 4 °C, Dynabeads Protein G, HA detected by Western blotting; also with E2 treatment
[1] = target: Flag-labeled IRS1 100-300 domain (UniProt P35569)
[2] = target: T1, Flag-labeled insulin receptor substrate 2 (IRS2) (UniProt P81122)
T1 sequence: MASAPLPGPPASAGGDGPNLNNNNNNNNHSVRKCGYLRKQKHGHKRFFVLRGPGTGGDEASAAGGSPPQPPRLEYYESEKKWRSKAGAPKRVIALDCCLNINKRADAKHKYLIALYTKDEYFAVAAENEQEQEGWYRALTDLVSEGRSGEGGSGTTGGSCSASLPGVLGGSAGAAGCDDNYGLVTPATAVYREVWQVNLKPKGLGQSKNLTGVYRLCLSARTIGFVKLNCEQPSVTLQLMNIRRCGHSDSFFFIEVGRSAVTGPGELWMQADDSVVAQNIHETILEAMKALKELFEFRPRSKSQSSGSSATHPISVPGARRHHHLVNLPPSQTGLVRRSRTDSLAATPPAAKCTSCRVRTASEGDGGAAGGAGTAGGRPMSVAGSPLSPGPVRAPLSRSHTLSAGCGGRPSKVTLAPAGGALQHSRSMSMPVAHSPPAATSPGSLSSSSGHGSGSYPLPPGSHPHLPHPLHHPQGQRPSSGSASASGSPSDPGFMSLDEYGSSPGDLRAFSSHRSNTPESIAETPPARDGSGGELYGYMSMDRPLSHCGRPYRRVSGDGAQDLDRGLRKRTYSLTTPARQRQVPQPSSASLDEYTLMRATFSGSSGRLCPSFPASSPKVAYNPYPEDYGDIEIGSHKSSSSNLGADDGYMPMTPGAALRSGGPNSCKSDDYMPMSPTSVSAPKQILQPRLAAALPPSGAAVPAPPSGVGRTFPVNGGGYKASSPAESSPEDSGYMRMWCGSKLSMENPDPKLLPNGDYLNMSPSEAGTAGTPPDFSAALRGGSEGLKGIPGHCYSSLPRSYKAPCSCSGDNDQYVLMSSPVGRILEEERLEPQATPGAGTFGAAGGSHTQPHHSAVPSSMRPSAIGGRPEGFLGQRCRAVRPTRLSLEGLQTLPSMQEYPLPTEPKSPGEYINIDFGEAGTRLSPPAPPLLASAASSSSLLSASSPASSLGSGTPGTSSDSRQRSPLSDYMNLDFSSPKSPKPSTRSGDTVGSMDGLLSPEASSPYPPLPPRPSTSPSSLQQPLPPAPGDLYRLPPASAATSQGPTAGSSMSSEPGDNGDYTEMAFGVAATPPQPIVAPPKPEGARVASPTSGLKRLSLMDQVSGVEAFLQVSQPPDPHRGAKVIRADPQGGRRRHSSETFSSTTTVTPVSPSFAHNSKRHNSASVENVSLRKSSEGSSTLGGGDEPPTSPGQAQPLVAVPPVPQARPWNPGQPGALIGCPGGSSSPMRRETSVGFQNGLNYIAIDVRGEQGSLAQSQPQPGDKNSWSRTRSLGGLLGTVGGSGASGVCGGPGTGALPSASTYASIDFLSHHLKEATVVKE

Amino acid sequences for entries named in this document (tags omitted). A change or cut given only in a name is not applied to a line headed by its entry. Residues count along the entry.
UniProt P35569: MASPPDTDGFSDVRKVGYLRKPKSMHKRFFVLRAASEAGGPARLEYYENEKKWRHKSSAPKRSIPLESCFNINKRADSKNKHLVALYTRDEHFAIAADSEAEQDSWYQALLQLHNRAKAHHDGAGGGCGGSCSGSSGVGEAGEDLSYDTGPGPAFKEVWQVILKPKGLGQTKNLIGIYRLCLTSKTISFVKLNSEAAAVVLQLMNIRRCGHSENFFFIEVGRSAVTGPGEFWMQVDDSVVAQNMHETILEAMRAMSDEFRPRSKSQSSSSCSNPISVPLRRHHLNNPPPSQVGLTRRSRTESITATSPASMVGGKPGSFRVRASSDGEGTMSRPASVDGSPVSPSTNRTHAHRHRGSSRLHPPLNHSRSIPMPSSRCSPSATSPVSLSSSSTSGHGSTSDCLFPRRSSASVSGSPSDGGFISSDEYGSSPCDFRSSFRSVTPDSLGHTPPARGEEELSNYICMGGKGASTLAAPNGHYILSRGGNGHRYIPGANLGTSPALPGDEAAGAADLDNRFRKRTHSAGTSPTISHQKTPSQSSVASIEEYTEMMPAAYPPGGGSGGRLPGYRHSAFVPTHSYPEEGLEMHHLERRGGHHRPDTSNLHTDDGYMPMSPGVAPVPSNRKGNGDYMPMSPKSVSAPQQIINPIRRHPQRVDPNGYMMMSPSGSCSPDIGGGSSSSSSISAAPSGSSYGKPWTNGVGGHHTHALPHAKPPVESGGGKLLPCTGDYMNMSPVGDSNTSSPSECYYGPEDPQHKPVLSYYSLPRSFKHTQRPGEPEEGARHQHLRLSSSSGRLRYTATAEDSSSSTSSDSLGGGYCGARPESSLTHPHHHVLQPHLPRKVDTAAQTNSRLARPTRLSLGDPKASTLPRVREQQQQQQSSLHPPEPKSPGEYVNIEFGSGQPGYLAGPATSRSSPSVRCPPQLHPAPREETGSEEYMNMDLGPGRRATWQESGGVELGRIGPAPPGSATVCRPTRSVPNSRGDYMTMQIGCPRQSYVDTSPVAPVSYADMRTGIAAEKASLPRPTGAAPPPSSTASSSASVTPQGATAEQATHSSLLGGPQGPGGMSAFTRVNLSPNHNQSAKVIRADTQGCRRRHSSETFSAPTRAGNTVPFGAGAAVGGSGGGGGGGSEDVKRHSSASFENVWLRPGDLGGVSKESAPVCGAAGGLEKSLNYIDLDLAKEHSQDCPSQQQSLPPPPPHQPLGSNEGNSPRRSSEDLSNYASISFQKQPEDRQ
Flag-labeled IRS1 100-300 domain: residues 100-300 of P35569
UniProt P03372: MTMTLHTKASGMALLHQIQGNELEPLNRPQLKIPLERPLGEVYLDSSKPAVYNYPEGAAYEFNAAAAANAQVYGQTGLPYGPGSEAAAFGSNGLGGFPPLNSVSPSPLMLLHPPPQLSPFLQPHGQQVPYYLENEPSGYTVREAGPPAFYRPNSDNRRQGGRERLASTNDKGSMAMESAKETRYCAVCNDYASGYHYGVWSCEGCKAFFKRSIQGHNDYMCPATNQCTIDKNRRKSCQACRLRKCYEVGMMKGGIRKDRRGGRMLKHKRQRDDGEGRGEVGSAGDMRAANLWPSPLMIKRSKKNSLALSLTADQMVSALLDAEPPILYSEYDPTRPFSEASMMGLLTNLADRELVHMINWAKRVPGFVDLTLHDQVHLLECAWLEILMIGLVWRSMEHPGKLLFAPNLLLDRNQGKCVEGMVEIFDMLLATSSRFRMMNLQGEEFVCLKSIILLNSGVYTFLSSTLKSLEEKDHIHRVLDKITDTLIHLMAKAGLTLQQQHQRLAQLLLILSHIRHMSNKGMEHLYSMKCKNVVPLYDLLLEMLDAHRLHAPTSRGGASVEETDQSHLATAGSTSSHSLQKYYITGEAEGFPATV

[3] = target: Flag-labeled insulin receptor substrate 1 (IRS1) (UniProt P35569)

Row | binding [1] | binding [2] | binding [3] | Substance
1 | binds |  |  | HA-labeled ERα 1-280 domain (AF1 + DBD) (from UniProt P03372 1-280) (domain or fragment)
2 | binds | binds | binds | HA-labeled estrogen receptor α (ERα) (from UniProt P03372 1-595)
